Data reported in paper PMC6143786.
Results are given in words; binding and its absence hold for the method and conditions named. In cells and extracts the contact can be indirect. Some binding calls cover weakened binding; strength is not graded here.

Biological target: V5-Beclin-1, Q14457
Assay: co-IP
Conditions: remark: other sources report otherwise

binding: binds
B1: Ambra-1, Q9C0C7 1-1298 (protein)
chain: MKVVPEKNAVRILWGRERGARAMGAQRLLQELVEDKTRWMKWEGKRVELPDSPRSTFLLAFSPDRTLLASTHVNHNIYITEVKTGKCVHSLIGHRRTPWCVTFHPTISGLIASGCLDGEVRIWDLHGGSESWFTDSNNAIASLAFHPTAQLLLIATANEIHFWDWSRREPFAVVKTASEMERVRLVRFDPLGHYLLTAIVNPSNQQGDDEPEIPIDGTELSHYRQRALLQSQPVRRTPLLHNFLHMLSSRSSGIQVGEQSTVQDSATPSPPPPPPQPSTERPRTSAYIRLRQRVSYPTAECCQHLGILCLCSRCSGTRVPSLLPHQDSVPPASARATTPSFSFVQTEPFHPPEQASSTQQDQGLLNRPSAFSTVQSSTAGNTLRNLSLGPTRRSLGGPLSSHPSRYHREIAPGLTGSEWTRTVLSLNSRSEAESMPPPRTSASSVSLLSVLRQQEGGSQASVYTSATEGRGFPASGLATESDGGNGSSQNNSGSIRHELQCDLRRFFLEYDRLQELDQSLSGEAPQTQQAQEMLNNNIESERPGPSHQPTPHSSENNSNLSRGHLNRCRACHNLLTFNNDTLRWERTTPNYSSGEASSSWQVPSSFESVPSSGSQLPPLERTEGQTPSSSRLELSSSASPQEERTVGVAFNQETGHWERIYTQSSRSGTVSQEALHQDMPEESSEEDSLRRRLLESSLISLSRYDGAGSREHPIYPDPARLSPAAYYAQRMIQYLSRRDSIRQRSMRYQQNRLRSSTSSSSSDNQGPSVEGTDLEFEDFEDNGDRSRHRAPRNARMSAPSLGRFVPRRFLLPEYLPYAGIFHERGQPGLATHSSVNRVLAGAVIGDGQSAVASNIANTTYRLQWWDFTKFDLPEISNASVNVLVQNCKIYNDASCDISADGQLLAAFIPSSQRGFPDEGILAVYSLAPHNLGEMLYTKRFGPNAISVSLSPMGRYVMVGLASRRILLHPSTEHMVAQVFRLQQAHGGETSMRRVFNVLYPMPADQRRHVSINSARWLPEPGLGLAYGTNKGDLVICRPEALNSGVEYYWDQLNETVFTVHSNSRSSERPGTSRATWRTDRDMGLMNAIGLQPRNPATSVTSQGTQTLALQLQNAETQTEREVPEPGTAASGPGEGEGSEYGASGEDALSRIQRLMAEGGMTAVVQREQSTTMASMGGFGNNIIVSHRIHRSSQTGTEPGAAHTSSPQPSTSRGLLPEAGQLAERGLSPRTASWDQPGTPGREPTQPTLPSSSPVPIPVSLPSAEGPTLHCELTNNNHLLDGGSSRGDAAGPRGEPRNR
